Papp A→B and Papp B→A data for 1 compound are collected here from US9890175B2, “Taxane compound, and preparation method and use thereof” (JIANGSU TASLY DIYI PHARMACEUTICAL CO., LTD., priority 2013, dated 2018).

A short description of this data set: Caco-2 cell monolayer membrane transport assay (Papp and recovery). Conditions: human; for Papp A→B: Caco-2, Papp A-B; for Papp B→A: Caco-2, Papp B-A. It is filed as in vitro ADME.

As to `CC(C)NCC(O)COc1ccc(CC(N)=O)cc1` (stereo not drawn) [Atenolol, reference compound], the Papp A→B was found to be 0.87 ×10⁻⁶ cm/s (Mean), 1.07 ×10⁻⁶ cm/s (Sample-01) and 0.67 ×10⁻⁶ cm/s (Sample-02). The apparent permeability from basolateral to apical (Papp B→A) reads like this: (Mean) 0.53 ×10⁻⁶ cm/s; (Sample-01) 0.5 ×10⁻⁶ cm/s; (Sample-02) 0.55 ×10⁻⁶ cm/s.
